Data reported in patent US20110251063A1, “HETEROCYCLIC DIKETONE DERIVATIVES WITH HERBICIDAL ACTION” (priority 2008, published 2011).
Some of these results come from one statement about several compounds together.

Key:
AVEFA = test: greenhouse post-emergence herbicidal activity against AVEFA; format: in vivo, Avena fatua; conditions: application rate 3.0 kg/ha, scale 0 to 100
ABUTH = test: greenhouse post-emergence herbicidal activity against ABUTH; format: in vivo, Abutilon theophrasti; conditions: application rate 3.0 kg/ha, scale 0 to 100

SMILES: COC(=O)C(C(=O)c1ncccc1O)c1ccccc1C(F)(F)F (centres unmarked) [I-1, methyl 3-(3-hydroxypyridin-2-yl)-3-oxo-2-(2-trifluoromethylphenyl)propionate]
- herbicidal activity against AVEFA (AVEFA): very good (a very good herbicidal activity is given at values of at least 85)
- herbicidal activity against ABUTH (ABUTH): very good (a very good herbicidal activity is given at values of at least 85)
